For 55 molecules, AC50 results are on record in PubChem BioAssay AID1487 (National Center for Advancing Translational Sciences (NCATS), 2009).

This test is described as follows: qHTS Assay for Modulators of Lamin A Splicing. The conditions noted are these: HeLa LMNA splicing GFP/RFP minigene ratio, 48 h. The essentials: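 Read-out is the ratio of GFP to DsRed2 object intensity, acquired by 488 nm laser-scanning cytometry on HeLa lamin A-EGFP minigene reporter cells. Compound incubation 48 hrs at 37 °C in Opti-MEM with 2% FBS; DMSO 0.5% final.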

The mark [1] stands for this setting: measured here: RFP viability control channel.
Setting [2] is: measured here: GFP splicing reporter channel.

The list shows a part of the results. Shown are side measurements of this screen, not its main read-out; they come without a call. Most of these compounds were active or inconclusive in the main read-out, so they are no random draw. Potencies come from curve fits of mixed quality, noted in brackets.

Turning to `O=C(NCCSCc1ccccc1)c1cc(S(=O)(=O)N2CCOCC2)ccc1F`, the concentration at half-maximal activity (AC50) under setting [1] is 25.1 µM [rising, partial curve, poor fit].
Still for that read-out and setting: as for `O=C(/C=C/c1ccc(S(=O)(=O)N2CCOCC2)cc1)NC(=S)Nc1ccc(N2CCOCC2)cc1`, the figure is 12.6 µM [rising, partial curve].
Take `Cc1nc(C(=O)Nc2ccccc2Cl)cc2c1[nH]c1ccccc12`: the AC50 under setting [2] is 7.08 µM [falling, partial curve] and the AC50 under setting [1] is 6.31 µM [falling, full curve].
For `CC(NCC(O)COCCC12CC3CC(CC(C3)C1)C2)c1ccccc1` (configuration not stated), the AC50 under setting [2] was 20 µM [falling, partial curve] and the concentration at half-maximal activity (AC50) under setting [1] is 11.2 µM [falling, partial curve].
For the molecule `O=C1CC(c2ccc(Cl)c([N+](=O)[O-])c2)c2ccc3ccccc3c2N1` (configuration not stated), the concentration at half-maximal activity (AC50) is 1 µM [rising, partial curve] under setting [2] and 14.1 µM [rising, partial curve] under setting [1].
For `COc1ccc(OCCN2C(=O)NC(C)(c3ccc(C)cc3)C2=O)cc1` (configuration not stated), under setting [1], the AC50 is 35.5 µM [rising, single point].
As for `CC(C)(C)n1nnnc1C(c1cccc(C#N)c1)N1CCCc2ccccc21` (configuration not stated), under setting [2], the AC50 was 11.2 µM [rising, partial curve].
With `Cc1cccc(C(=O)NC(=S)NNC(=O)Cc2ccccc2)c1`, the AC50 under setting [1] was 17.8 µM [rising, single point].
Take `Cc1noc(C)c1C(=O)Nc1nc(C23CC4CC(CC(C4)C2)C3)cs1`: the AC50 under setting [1] was 31.6 µM [rising, single point].
On to `Cc1cc(Nc2cccc(Cl)c2)nc(N2CCOCC2)n1`, for which the AC50 is 4.47 µM [rising, partial curve] under setting [2] and 17.8 µM [rising, partial curve, poor fit] under setting [1].
For `COCCn1c(SC(C)C(=O)Nc2ccc3c(c2)OCCO3)nc2ccccc2c1=O` (configuration not stated), the AC50 under setting [1] was 3.98 µM [rising, single point].
With `COc1ccc(S(=O)(=O)n2nc(-c3ccco3)nc2NCc2ccc(C(C)C)cc2)cc1`, the AC50 was 3.16 µM [falling, single point] under setting [2] and 3.55 µM [falling, partial curve] under setting [1].
`CCN(CC)C(=O)c1ccc(C(=O)c2c(C)cc(C)cc2C)cc1`: the AC50 under setting [1] is 31.6 µM [rising, single point].
In the case of `Cc1ccc(C(=O)NCc2ccc(Cl)c(Cl)c2)o1`, the AC50 under setting [2] was 14.1 µM [rising, single point].
Turning to `O=C(NCCCN1CCN(c2ccccc2F)CC1)c1ccc2nc(CCc3ccccc3)oc2c1`, the concentration at half-maximal activity (AC50) by setting is: under setting [2], 22.4 µM [falling, single point]; under setting [1], 17.8 µM [falling, single point].
Take `O=S(=O)(Nc1ccc2ccccc2c1)c1ccccc1`: the AC50 by setting is: under setting [2], 11.2 µM [rising, single point]; under setting [1], 14.1 µM [rising, single point].
As to `Brc1ccccc1-c1csnn1`, the concentration at half-maximal activity (AC50) reads like this: under setting [2], 3.55 µM [rising, partial curve]; under setting [1], 4.47 µM [rising, partial curve, poor fit].
As for `c1ccc(Sc2ncnc3c2oc2ccccc23)cc1`, the concentration at half-maximal activity (AC50) under setting [2] was 28.2 µM [falling, single point].
Consider `Cc1ccc2[nH]c3c(N4CCN(Cc5ccc6c(c5)OCO6)CC4)ncnc3c2c1`, for which, under setting [2], the AC50 is 3.16 µM [rising, full curve].
With `Cc1cc(C(=O)O)c(S(C)(=O)=O)s1`, the half-maximal activity concentration (AC50) under setting [1] is 35.5 µM [falling, single point].
For the molecule `Cc1ccc(-c2nnc(N3CC(C)OC(C)C3)c3ccccc23)cc1` (configuration not stated), the AC50 is, setting by setting: under setting [2], 11.2 µM [falling, partial curve, poor fit]; under setting [1], 0.0355 µM [falling, full curve, poor fit].
For `O=C(NNc1c2ccccc2nc2ccccc12)c1cc2ccccc2cc1O`, under setting [1], the half-maximal activity concentration (AC50) was 14.1 µM [rising, single point].
For `COCCn1c(CN2CCC(Cc3ccccc3)CC2)nc2c1c(=O)n(C)c(=O)n2C`, under setting [1], the AC50 was 1.58 µM [rising, partial curve, poor fit].
Regarding `CCN1CCN(C2=CC3=CC(=C(C#N)C#N)CCC3CC2)CC1` (configuration not stated), under setting [1], the AC50 was 4.47 µM [falling, full curve].
On to `CN(C)c1ccc(-c2cncnc2N(C)Cc2ccco2)cc1`, for which the AC50 under setting [2] was 14.1 µM [falling, partial curve].
For `COc1ccccc1-c1ccc2ncnc(Nc3ccccc3)c2c1`, the AC50 runs as follows: under setting [2], 12.6 µM [falling, partial curve]; under setting [1], 15.8 µM [falling, partial curve].
`C=CCc1cccc(/C=C/c2cc(=O)c3ccccc3[nH]2)c1O`: the AC50 under setting [1] is 7.94 µM [rising, partial curve].
As to `Cc1cc(=O)oc2cc(O)ccc12`, the half-maximal activity concentration (AC50) is 0.00398 µM [falling, full curve, poor fit] under setting [2] and 0.00447 µM [falling, full curve, poor fit] under setting [1].
Regarding `CNC(=O)c1cc2c(cn1)[nH]c1ccccc12`, the concentration at half-maximal activity (AC50) under setting [2] was 0.0891 µM [rising, full curve, poor fit] and the AC50 under setting [1] was 6.31 µM [rising, partial curve, poor fit].
Consider `N#C/C(=C\c1cccc(NC(=O)c2ccccc2Cl)c1)C(=O)NCCc1ccccc1`, for which the AC50 was 28.2 µM [falling, single point] under setting [2] and 15.8 µM [falling, single point] under setting [1].
On to `COc1ccc(NC(=O)/C=C/c2ccc(Cl)cc2)cc1`, for which the half-maximal activity concentration (AC50) was 4.47 µM [rising, partial curve, poor fit] under setting [2] and 11.2 µM [rising, partial curve] under setting [1].
As to `CSc1nc2ccc(NS(=O)(=O)c3cccc(Cl)c3Cl)cc2s1`, the AC50 under setting [1] is 25.1 µM [rising, single point].
For the molecule `Cc1ccc(S(=O)(=O)N/N=C\c2cc([N+](=O)[O-])ccc2Cl)cc1`, the half-maximal activity concentration (AC50) under setting [1] was 11.2 µM [rising, partial curve, poor fit].
Turning to `COC(=O)c1ccccc1NC(=O)CSc1nc2ccccc2nc1Cc1ccc(F)cc1`, the AC50 is, setting by setting: under setting [2], 1 µM [rising, full curve, poor fit]; under setting [1], 0.891 µM [rising, full curve, poor fit].
As for `CCOC(=O)N1CCN(C(=O)C(C)N(c2ccc(Oc3ccccc3)cc2)S(C)(=O)=O)CC1` (configuration not stated), the AC50 by setting is: under setting [2], 5.01 µM [rising, full curve, poor fit]; under setting [1], 10 µM [rising, partial curve].
As to `NC(=S)N=Nc1c(O)n(CCCl)c2ccc(Cl)cc12`, the AC50 runs as follows: under setting [2], 5.62 µM [rising, partial curve, poor fit]; under setting [1], 12.6 µM [rising, partial curve].
In the case of `CC(=O)c1ccc(NC(=O)CN2C(=O)/C(=C/C(C)=C/c3ccccc3)SC2=S)cc1`, under setting [1], the AC50 is 6.31 µM [rising, partial curve, poor fit].
Turning to `COc1ccccc1NC(=O)N1C2CCCC1CC(NC(=O)c1ccccc1)C2` (configuration not stated), under setting [2], the AC50 is 0.0251 µM [falling, full curve].
For `CCOC(=O)N1CCN(S(=O)(=O)c2ccc(C(=O)Nc3nnc(C4CC4)o3)cc2)CC1`, the AC50 under setting [1] was 35.5 µM [rising, single point].
Consider `Cc1nnc(NC(=O)CSc2nccn2Cc2ccccc2)s1`, for which the AC50 by setting is: under setting [2], 0.794 µM [rising, full curve]; under setting [1], 1.41 µM [rising, full curve].
For the molecule `COc1ccc(CNC(=O)c2c(O)c3cccc4c3n(c2=O)CCC4)cc1`, the concentration at half-maximal activity (AC50) under setting [2] is 5.62 µM [rising, partial curve, poor fit].
As to `CCCn1c(N2CCN(CC(=O)NCc3cccs3)CC2)nc2ccccc21`, the AC50 under setting [1] was 0.0447 µM [rising, full curve, poor fit].
On the same count and under the same terms, as for `O=S(=O)(c1ccc(NC(=S)Nc2ccc(OC(F)F)cc2)cc1)N1CCOCC1`, the figure is 15.8 µM [rising, single point]; as for `CN(C(=O)c1ccco1)c1nnc(C23CC4CC(CC(C4)C2)C3)s1`, 12.6 µM [rising, single point].
Still for that read-out and setting: as for `COc1ccc(C(=O)NCC(=O)N/N=C/C(C)=C/c2ccco2)cc1OC`, the figure is 12.6 µM [rising, single point]; as for `Cc1cccc(NC(=S)NC(=O)/C=C/c2ccco2)n1`, 35.5 µM [rising, single point].
On to `Cc1ccc(NC(=O)c2cc3c(s2)CCCC3)cc1S(=O)(=O)Nc1ccccc1Cl`, for which the AC50 reads like this: under setting [2], 15.8 µM [rising, single point]; under setting [1], 15.8 µM [rising, partial curve].
With `CNS(=O)(=O)c1ccc(C)c(S(=O)(=O)NC)c1`, the AC50 under setting [1] was 0.398 µM [rising, full curve, poor fit].
With `COc1cc2[nH]c(=O)n(Cc3ccc(C(=O)NC4CCN(Cc5ccccc5)CC4)cc3)c(=O)c2cc1OC`, the concentration at half-maximal activity (AC50) under setting [2] was 11.2 µM [falling, partial curve].
Turning to `COc1ccc(C(=O)/C=C/c2ccc(OC(=O)c3cc(OC)c(OC)c(OC)c3)cc2)cc1`, the half-maximal activity concentration (AC50) is, setting by setting: under setting [2], 0.02 µM [falling, full curve, poor fit]; under setting [1], 25.1 µM [falling, partial curve].
Consider `O=C(NC(CO)Cc1ccc([N+](=O)[O-])cc1)C(Cl)Cl` (configuration not stated), for which the AC50 under setting [1] is 28.2 µM [rising, single point].
`COc1ccc(C)cc1-n1nnnc1SCC(=O)N1CCC(C(=O)Nc2nccs2)CC1`: the AC50 is 6.31 µM [rising, full curve] under setting [2] and 3.98 µM [rising, full curve] under setting [1].
On to `COc1ccc2c(c1)c(=O)c(C(=O)c1ccccc1)cn2Cc1ccccc1`, for which the half-maximal activity concentration (AC50) under setting [1] was 14.1 µM [rising, partial curve].
Turning to `Cc1ccc(OCC(=O)N2CCc3ccccc32)cc1`, the half-maximal activity concentration (AC50) was 35.5 µM [rising, single point] under setting [2] and 35.5 µM [rising, single point] under setting [1].
Turning to `O=C(Oc1ccc(=O)n(-c2ccccc2)n1)c1ccc(F)cc1`, the half-maximal activity concentration (AC50) under setting [1] is 0.0141 µM [rising, full curve, poor fit].
